# Assay results from PubChem BioAssay AID2685 (National Center for Advancing Translational Sciences (NCATS), 2010).
# The whole screen tested about 320,000 compounds, of which about 2,100 (0.66%) were called active. The inconclusive results got no clear call from the source; some entries with a clear call stand among them for comparison. Calls come from the whole dose curve; as a rule, active = well fitted inhibition curve with a large enough effect in the signal ratio, with a control signal flat (not every such curve was filed as active); inconclusive = small, poorly fitted or top-dose-only effect, or effect the other way, or a change in a side signal; inactive = flat fitted curve, though single readings scatter; the % refers to the signal ratio. Potencies of inconclusive entries are doubtful fits and often do not repeat.
# Assay: qHTS Assay for Lipid Storage Modulators in Drosophila S3 Cells
# Conditions: BODIPY lipid droplet fluorescence, 18-24 h, cells fed with added oleic acid; lipid storage change, negative = inhibition: at 46.1 µM (top of the series) unless noted
# Outline: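 Laser-scanning cytometry quantifies lipid droplet accumulation (500–530 nm total intensity; droplet/cell object ratio) in oleic acid-fed (400 uM added) Drosophila S3 cells treated with a concentration series. 20 uM Triacsin C defined 100% inhibition.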
# % is set by controls: 0 for no effect and ±100 for the full control effect; potency is the fitted concentration of half-maximal effect.
Structure (SMILES),"lipid storage change, negative = inhibition",Potency
C/C=C/c1ccc(OC)c(OC(C)=O)c1,inconclusive: -35.1%,
CCOCCCNCC(=O)NCC1CCCCC1,,"inconclusive: 0.731 µM [falling, full curve]"
COC(=O)N/N=C/c1ccc([N+](=O)[O-])s1,,"inconclusive: 18.4 µM [falling, single point]"
O=C(c1ccccc1-c1nc2ccccc2[nH]1)N1CCOCC1,inconclusive: 35.6%,
CN(C)c1ccc(C(=S)N2CCCCC2)cc1Br,inconclusive: -1.52%,
Cc1ccc(C(=O)OCC(=O)c2c[nH]c3ccccc23)cc1S(=O)(=O)N1CCOCC1,inconclusive,
COc1ccc(NC(=O)CCn2cccc2)cc1,inconclusive: 0.696%,
CC(C)COC(=O)CCNc1n[nH]c(=O)[nH]c1=O,,"inconclusive: 20.6 µM [falling, partial curve]"
CCN(CC)S(=O)(=O)c1ccc(N2CCOCC2)c(NC(=O)COc2ccc(Cl)cc2)c1,inconclusive: 17%,
CC(NC(=O)Cn1ccsc1=N)C12CC3CC(CC(C3)C1)C2 (stereo not drawn),inconclusive: -5.14%,
O=C(COc1ncnc2ccccc12)NC(=O)NCc1ccccc1,inconclusive: 14%,
Cc1ccc(NC(=O)CN(C)C(=O)COC(=O)COc2ccc(C#N)cc2)cc1,inconclusive: 3.68%,
CCOC(=O)Cn1c(=NC(=O)C2COc3ccccc3O2)sc2cc(S(N)(=O)=O)ccc21 (stereo not drawn),inconclusive: 47% [activator],
COc1cc(/C=C2\SC(=S)N(CCC(=O)Nc3cccc(O)c3)C2=O)cc(OC)c1OC,,active: 3.66 µM
CC(C)Cn1nc(C(=O)N2CCc3ccccc32)c2ccccc2c1=O,inconclusive,
COc1cc(NS(=O)(=O)c2ccc(NC(=S)NC(=O)c3ccccc3)cc2)nc(OC)n1,,"inconclusive: 29.1 µM [activator, single point]"
CC(C)(C)c1ccc(OCC(=O)Nc2cccc(S(=O)(=O)NC3=NCCCCC3)c2)cc1,,"inconclusive: 18.4 µM [falling, single point]"
CCOc1cc(C(=O)Nc2ccc(NC(C)=O)cc2)ccc1OCC(=O)N1CCCCC1,inconclusive: -3.69%,
O=c1c2ccccc2c(-c2ccccc2)nn1-c1ccccn1,inactive,
O=[N+]([O-])c1ccc(N2CCOCC2)cc1N1CCCCC1,inconclusive: 22.1%,
O=S(=O)(c1ccccc1)n1c(C(O)c2ccccn2)cc2ccccc21 (stereo not drawn),inconclusive: 25.1%,
CC12CN3CC(C)(CN(C1)C3c1ccc(Br)cc1)C2=O (stereo not drawn),inconclusive: -1.64%,
COc1ccc(/C=N/Nc2nn3cnnc3c3ccccc23)cc1,,"inconclusive: 16.4 µM [falling, single point]"
O=C1CC(=O)N(CCc2ccc(F)cc2)C(=O)N1,inconclusive: 11.7%,
Cc1ccc(Cn2ccc(NC(=O)c3cc(-c4cccs4)on3)n2)cc1,inconclusive: 81.6%,
COc1ccc(SCC(=O)Nc2ccccc2Cl)cc1,,"inconclusive: 1.3 µM [cytotoxic, full curve]"

Structure (SMILES),"lipid storage change, negative = inhibition",Potency
COc1ccc(NC(=O)CSc2nc(SC)ns2)cc1,,"inconclusive: 5.8 µM [falling, single point]"
CCOC(=O)c1sc(N)nc1C(C)(C)C,inconclusive: 6.93%,
COc1cc(OC)nc(Oc2ccc(N)c(C)c2)n1,inconclusive: -22.2%,
CCOC(=O)c1sc(NC(=O)c2ccc(S(=O)(=O)N(C)C)cc2)nc1C,,"inconclusive: 0.326 µM [activator, full curve]"
Cc1cc(C)c(C)c(OCC(O)CN2CCN(c3ccccn3)CC2)c1 (stereo not drawn),,"inconclusive: 0.58 µM [activator, partial curve]"
c1ccc(-n2nnnc2OCCOc2nnnn2-c2ccccc2)cc1,inconclusive: 10.4%,
CSc1ccc(CN(C)C(=O)COc2ccc(C(=O)c3ccccc3)cc2)cc1,inconclusive: -18%,
CC(=O)NC1CC2CCCC(C1)N2S(=O)(=O)c1cccc(F)c1 (stereo not drawn),inconclusive: 20%,
COc1ccc(CN2CC(C(=O)NCCc3ccc(Cl)cc3)CC2=O)cc1 (stereo not drawn),inconclusive: -19.8%,
O=C(Nc1ccc(NC(=O)c2sc3ccccc3c2Cl)cc1Cl)c1ccco1,,"inconclusive: 16.4 µM [falling, single point]"
CC12CC3(C)CC(C)(C1)CC(C(=O)NCc1ccccn1)(C2)C3,inconclusive: -62.8% [cytotoxic] [at 0.00295 µM],
CN(C)c1ccc(C=NCC2COc3ccccc3O2)cc1 (stereo not drawn),inconclusive: 26.3%,
COc1cccc(-c2nnc(NC(=O)c3cccs3)s2)c1,inconclusive: 27.2%,
CC(=O)c1cccc(N(C(=O)CNC(=O)c2cccs2)C(C(=O)NCC2CCCO2)c2ccccc2)c1 (stereo not drawn),,"inconclusive: 29.1 µM [falling, single point]"
COC(=O)N/N=C/c1c(C)cc(C)cc1C,inconclusive: -0.984%,
CCOC(=O)c1sc2nc(N3CCOCC3)c3c(c2c1N)CC(C(C)C)OC3 (stereo not drawn),inconclusive: -0.509%,
Cc1ccc2c(c1)c(Sc1ccccc1)c(CC(=O)O)n2C,,"inconclusive: 3.26 µM [falling, partial curve, poor fit]"
Cc1cc(NC(=O)c2cc(F)c(F)cc2Cl)no1,inconclusive: -2.54%,
CC(=O)c1sc(Nc2ccccn2)nc1C,inconclusive: 13%,
COc1cccc(C2C(C#N)=C(N)Oc3cc(C)oc(=O)c32)c1OC (stereo not drawn),inconclusive: -4.49%,
Cc1ccc(NC(=O)CSc2nnc(CNC(=O)c3c(F)cccc3Cl)o2)cc1,inconclusive: 33.9%,
COc1ccc(C(=O)NCc2nnc(SCC(=O)N3CCc4ccccc43)o2)cc1OC,,"inconclusive: 3.66 µM [rising, single point]"
CCOC(=O)C1CCN(CC(C)(C)NS(=O)(=O)c2ccccc2)CC1,,"inconclusive: 0.651 µM [falling, single point]"
Cc1ccc(OCC(=O)Nc2ccc(N3CCN(S(C)(=O)=O)CC3)cc2)cc1C,,"inconclusive: 29.1 µM [activator, single point]"
CCCc1ncc(C(O)c2cccc(OC)c2OC)n1C (stereo not drawn),inconclusive: -24.2%,
CCCNC(=O)c1ccc2c(c1)S(=O)(=O)c1ccccc1C2=O,inactive,

# Part of the list above, with tabs.
Structure (SMILES)	lipid storage change, negative = inhibition	Potency
CC12CC3(C)CC(C)(C1)CC(C(=O)NCc1ccccn1)(C2)C3	inconclusive: -62.8% [cytotoxic] [at 0.00295 µM]	
CN(C)c1ccc(C=NCC2COc3ccccc3O2)cc1 (stereo not drawn)	inconclusive: 26.3%	
COc1cccc(-c2nnc(NC(=O)c3cccs3)s2)c1	inconclusive: 27.2%	
CC(=O)c1cccc(N(C(=O)CNC(=O)c2cccs2)C(C(=O)NCC2CCCO2)c2ccccc2)c1 (stereo not drawn)		inconclusive: 29.1 µM [falling, single point]
COC(=O)N/N=C/c1c(C)cc(C)cc1C	inconclusive: -0.984%	

# (listing goes on)

Structure (SMILES),"lipid storage change, negative = inhibition",Potency
CCN(CC)c1ccc(C2NC(=O)NC(C)=C2C(=O)Nc2ccccc2)cc1 (stereo not drawn),,active: 1.64 µM
CCC(CC)NC(=O)CO/N=C/c1ccc(Cl)cc1Cl,inconclusive: 17.1%,
C=CCn1c(SCC(=O)Nc2ccc3c(c2)OCO3)nnc1-c1ccccc1,,"inconclusive: 0.461 µM [activator, full curve]"
Cn1ncc([N+](=O)[O-])c1C(=O)N/N=C/c1cccc([N+](=O)[O-])c1,,"inconclusive: 6.51 µM [falling, single point]"
C/C(=N\NC(=O)c1c(C)nc2ccccn12)c1ccccc1F,,"inconclusive: 20.6 µM [activator, single point]"
CC1CCN(S(=O)(=O)c2ccc3c(c2)oc(=O)n3CC(=O)N2CCc3ccccc3C2)CC1,inconclusive: -18.9%,
Cn1cccc1C(=O)NCC1CCCCC1,inconclusive: -0.615%,
Cc1ccc(C)c(N2CCN(S(=O)(=O)c3ccc4c(c3)NC(=O)CS4)CC2)c1,,"inconclusive: 9.2 µM [activator, single point]"
COC(=O)COn1c(SC(C)C)nc2ccccc2c1=O,inconclusive: -14.2%,
CN(C)C(/C=C/Nc1ccc(O)cc1)=C(C#N)C#N,inconclusive: -30.8%,
C/C(=C/CCC(C)[C@H]1CC[C@@]2(C)C3=C(CC[C@]12C)[C@@]1(C)CCC(=O)C(C)(C)[C@@H]1CC3)C(=O)O (stereo partly drawn),,"inconclusive: 29.1 µM [cytotoxic, single point]"
COc1cc2c(C(=O)NCCN(C)C)cn(CC(C)C)c(=O)c2cc1OC,,"inconclusive: 0.184 µM [falling, full curve]"
C=CCNC(=S)Nc1nc2c(cc1C(=O)OCC)COC(C)(C)C2,inconclusive: -9.21%,
Cc1nc2c(-c3ccc(F)cc3)cnn2c(N)c1-c1ccc(F)cc1,inconclusive: -28.6%,
COc1ccccc1C1NC(=O)NC(C)=C1C(=O)Nc1cccc(C)c1C (stereo not drawn),inconclusive: 60.4% [activator],
CCOc1cc(/C=N/Nc2nncc(-c3ccccc3)n2)ccc1O,inconclusive: -8.38%,
COCc1cc(C)nc(SCC(=O)Nc2cccc3cccnc23)c1C#N,,"inconclusive: 13 µM [activator, partial curve, poor fit]"
CCN(CC)S(=O)(=O)c1ccc2[nH]c(=O)cc(C(=O)NCc3ccccc3)c2c1,inconclusive: 13.2%,
COc1ccc(C(=O)NCC(=O)N2CCNC(=O)C2)cc1OC,inconclusive: 26.1%,
O=c1[nH]c2ccccc2nc1-c1cccs1,,"inconclusive: 6.51 µM [falling, single point]"
COc1cccc(/C=C/C(=O)NNC(=O)c2ccncc2)c1OC,inconclusive: 8.67%,
COc1ccc(OCC(=O)NCC(c2ccc(OC)cc2)N2CCCCC2)cc1 (stereo not drawn),inconclusive: 66.8%,
COc1ccc(CNC(=O)c2ccc(N3CCCC3=O)cc2)cc1,inactive,
Nc1ccc(O)cc1C(=O)OCC(=O)C12CC3CC(CC(C3)C1)C2,,"inconclusive: 18.4 µM [falling, single point]"
CC(=O)c1cccc(S(=O)(=O)N2CCN(c3nc4cc(C)cc(C)c4cc3C#N)CC2)c1,,"inconclusive: 0.116 µM [activator, full curve, poor fit]"
COc1ccccc1C1(O)CCN(CC(=O)Nc2c(C)nn(C)c2C)CC1,inconclusive: 15.5%,
